Measured values as given in article PMC12518634, “The noncanonical function of liver-type phosphofructokinase potentiates the efficacy of HDAC inhibitors in cancer” (Signal Transduction and Targeted Therapy, 2025).

Legend:
[1] = tested on: 783C-6; assay: High-throughput drug screen, CellTiter-Glo viability, 72 h; format: cell-based, human; design: AUC: scale not given here; conditions: 783C-6 cells
Method: (§1) The cells were seeded and incubated with a gradient of concentrations of drugs for 72 h, after which the cell viability was assessed (Supplementary Fig. 1a). The drug library primarily comprises epigenetic drugs, including HDAC inhibitors, DNA methyltransferase inhibitors, and histone demethylase inhibitors, as well as conventional chemotherapies and kinase inhibitors (Supplementary Fig. 1b and Supplementary Table 1). […] To identify novel therapeutics against CCA, we conducted a high-throughput screen employing PerkinElmer’s integrated robotic Explorer G3 workstations. […] Following dilution to five specified concentrations, drugs were dispensed into 96-well plates in the sequence detailed in Supplementary Fig. 1a. The CCA cell lines were subsequently plated in 384-well plates at a density of 3000 cells per well in a 20 μL total volume. After a 24-h incubation, the compounds were added to the wells and incubated for 72 h. We then quantified cell viability via the CellTiter-Glo luminescent assay according to the manufacturer’s protocol. Signal detection was carried out on a Synergy2 plate reader operated by Gen5 software (BioTek). For data processing, the raw luminescence data were processed through the Breeze pipeline for curve fitting, yielding quality control metrics (e.g., Z-factors) and drug response parameters (AUC and DSS), as adapted from previous work.[54] Drug responses were evaluated on the basis of the drug sensitivity score (DSS), and a cutoff of ≥10 was used to define efficacy. The complete drug library and screening dataset are available in Supplementary Tables 1-3.
(§2) Supplementary Fig. 1. A high-throughput drug screen to identify drugs targeting CCA. a Schematic representation of the drug screening protocol. […] Each drug was tested at five different concentrations (10, 1, 0.1, 0.01, and 0.001 μM), and each treatment was replicated twice. b Classification of drugs used for screening.

[2] = tested on: 1405R3; assay: as above; format: cell-based, human; design: AUC: scale not given here; conditions: 1405R3 DSRT analysis
Method: as §1, §2

[3] = area under the dose-response curve
[4] = slope of fitted dose-response curve

Cc1ccc(C(=O)NCCCCCC(=O)Nc2ccccc2N)cc1 [RG2833]
DSS ([1]; DSS of DSRT analysis): 0.7 | AUC [1, 3]: 13.8 | MIN ([1]; minimum of dose-response curve): 84.8 | SLOPE [1, 4]: -2.5 | AUC [2, 3]: 8.2 | DSS ([2]; drug sensitivity score): 0.4 | MIN ([2]; lower asymptote of fitted dose-response curve): 78.3 | SLOPE [2, 4]: -2.5
